Data source: PubChem BioAssay AID743121 (NCATS, 2013)
Test: 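Genes whose silencing strengthens cell killing by camptothecin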 (primary screen). System: MDA-MB-231 cells, a human breast cancer line. Reagents: single siRNA against human genes, 20 nM siRNA (0.8 pmol per well). Timing: 120 h (drug added 48 h after transfection, read 72 h later). Conditions: camptothecin 20 nM (about EC30) for 72 h; vehicle 0.1% DMSO in parallel plates. Measured: 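Cell viability by ATP luminescence (CellTiter-Glo) as % of non-targeting siRNA wells, and the log2 ratio of viability without drug over viability with camptothecin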. Scale: log2 vehicle/camptothecin viability: higher = stronger sensitisation to camptothecin; viability with camptothecin and viability without drug: higher = more viable cells. Call rule: 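Each gene scored by redundant siRNA activity (RSA) over its individual siRNA ratios; a gene is called active at p < 0.001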.
This is a random part of about 26,000 reagents. 167 of them (0.63%) count as active. 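Calls are per gene from RSA p-values that are not deposited; an individual active-marked siRNA can sensitise only weakly.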 Unmarked entries are inactive. The numbers tell different reagents against one gene apart.

| gene symbol | siRNA no. | log2 vehicle/camptothecin viability | viability with camptothecin (% of control) | viability without drug (% of control) |
| --- | --- | --- | --- | --- |
| RAB24 (RAB24, member RAS oncogene family) | 1 | 0.204 | 92.1 | 106 |
| RAB24 (RAB24, member RAS oncogene family) | 2 | -0.347 | 74.3 | 58.4 |
| RAB24 (RAB24, member RAS oncogene family) | 3 | -0.3 | 92.9 | 75.5 |
| RAB24 (RAB24, member RAS oncogene family) | 4 | -0.719 | 114 | 69.4 |
| ECE2 (endothelin converting enzyme 2) | 1 | 0.144 | 82.9 | 91.6 |
| ECE2 (endothelin converting enzyme 2) | 2 | -0.158 | 61.5 | 55.2 |
| ECE2 (endothelin converting enzyme 2) | 3 | -0.0129 | 48.2 | 47.8 |
| ECE2 (endothelin converting enzyme 2) | 4 | 0.0507 | 89.2 | 92.4 |
| ECE2 (endothelin converting enzyme 2) | 5 | 0.412 | 41.7 | 55.5 |
| ECE2 (endothelin converting enzyme 2) | 6 | -0.334 | 67.8 | 53.8 |
| BMP2 (bone morphogenetic protein 2) | 1 | -0.306 | 60.6 | 49 |
| BMP2 (bone morphogenetic protein 2) | 2 | 0.175 | 52.8 | 59.6 |
| BMP2 (bone morphogenetic protein 2) | 3 | -0.207 | 89.3 | 77.3 |
| BMP2 (bone morphogenetic protein 2) | 4 | -0.00566 | 106 | 106 |
| JMJD1C (jumonji domain containing 1C) | 1 | -0.0439 | 118 | 114 |
| JMJD1C (jumonji domain containing 1C) | 2 | -0.575 | 19.7 | 13.2 |
| JMJD1C (jumonji domain containing 1C) | 3 | -0.157 | 109 | 97.6 |
| JMJD1C (jumonji domain containing 1C) | 4 | -0.153 | 85.3 | 76.7 |
| MSH4 (mutS homolog 4) | 1 | -0.192 | 80.5 | 70.5 |
| MSH4 (mutS homolog 4) | 2 | 0.0126 | 52.3 | 52.7 |
| MSH4 (mutS homolog 4) | 3 | 0.244 | 30.3 | 35.8 |
| MSH4 (mutS homolog 4) | 4 | -0.649 | 88.2 | 56.3 |
| AREG (amphiregulin) | 1 | 0.0952 | 93.7 | 100 |
| AREG (amphiregulin) | 2 | -0.241 | 59.5 | 50.3 |
| AREG (amphiregulin) | 3 | -0.124 | 76.8 | 70.4 |
| AREG (amphiregulin) | 4 | -0.0123 | 59.2 | 58.7 |
| FKBP1A (FKBP prolyl isomerase 1A) | 1 | 0.064 | 99.2 | 104 |
| FKBP1A (FKBP prolyl isomerase 1A) | 2 | -0.141 | 108 | 97.8 |
| FKBP1A (FKBP prolyl isomerase 1A) | 3 | 0.0161 | 97 | 98.1 |
| FKBP1A (FKBP prolyl isomerase 1A) | 4 | -0.0198 | 90.6 | 89.3 |
| FKBP1A (FKBP prolyl isomerase 1A) | 5 | -0.338 | 109 | 86.5 |
| FKBP1A (FKBP prolyl isomerase 1A) | 6 | 0.398 | 51.5 | 67.8 |
| FKBP1A (FKBP prolyl isomerase 1A) | 7 | -0.12 | 113 | 104 |
| FKBP1A (FKBP prolyl isomerase 1A) | 8 | -0.306 | 109 | 88.3 |
| SLC6A20 | 1 | -0.0472 | 80.7 | 78.1 |
| SLC6A20 | 2 | -0.482 | 106 | 76 |
| SLC6A20 | 3 | -0.0748 | 108 | 102 |
| SLC6A20 | 4 | -0.198 | 50.1 | 43.6 |
| SMAD7 (SMAD family member 7) | 1 | -0.321 | 61.9 | 49.6 |
| SMAD7 (SMAD family member 7) | 2 | -0.152 | 66.1 | 59.4 |
| SMAD7 (SMAD family member 7) | 3 | 0.211 | 97.5 | 113 |
| SMAD7 (SMAD family member 7) | 4 | -0.406 | 117 | 88 |
| STX11 (syntaxin 11) | 1 | -0.276 | 110 | 91.1 |
| STX11 (syntaxin 11) | 2 | -0.582 | 95.7 | 63.9 |
| STX11 (syntaxin 11) | 3 | -0.447 | 80 | 58.7 |
| STX11 (syntaxin 11) | 4 | -0.0577 | 103 | 99.4 |
| OR2F1 (olfactory receptor family 2 subfamily F member 1) | 1 | 0.00419 | 66.6 | 66.8 |
| OR2F1 (olfactory receptor family 2 subfamily F member 1) | 2 | -0.139 | 66.9 | 60.8 |
| OR2F1 (olfactory receptor family 2 subfamily F member 1) | 3 | -0.321 | 73.7 | 59 |
| OR2F1 (olfactory receptor family 2 subfamily F member 1) | 4 | -0.153 | 103 | 92.7 |
| TUSC2 (tumor suppressor 2, mitochondrial calcium regulator) | 1 | 0.441 | 74 | 100 |
| TUSC2 (tumor suppressor 2, mitochondrial calcium regulator) | 2 | -0.633 | 41 | 26.4 |
| TUSC2 (tumor suppressor 2, mitochondrial calcium regulator) | 3 | -0.151 | 75.4 | 67.9 |
| TUSC2 (tumor suppressor 2, mitochondrial calcium regulator) | 4 | -0.0391 | 89.5 | 87.1 |
| RHOU (ras homolog family member U) | 1 | -0.343 | 54.3 | 42.8 |
| RHOU (ras homolog family member U) | 2 | -0.203 | 19.4 | 16.8 |
| RHOU (ras homolog family member U) | 3 | -0.17 | 117 | 104 |
| RHOU (ras homolog family member U) | 4 | -0.19 | 71 | 62.2 |

Sorted by “log2 vehicle/camptothecin viability” (ascending): some entries from above
| gene symbol | siRNA no. | log2 vehicle/camptothecin viability | viability with camptothecin (% of control) | viability without drug (% of control) |
| --- | --- | --- | --- | --- |
| MSH4 (mutS homolog 4) | 4 | -0.649 | 88.2 | 56.3 |
| AREG (amphiregulin) | 2 | -0.241 | 59.5 | 50.3 |
| MSH4 (mutS homolog 4) | 1 | -0.192 | 80.5 | 70.5 |
| JMJD1C (jumonji domain containing 1C) | 3 | -0.157 | 109 | 97.6 |
| JMJD1C (jumonji domain containing 1C) | 4 | -0.153 | 85.3 | 76.7 |
| AREG (amphiregulin) | 3 | -0.124 | 76.8 | 70.4 |
| AREG (amphiregulin) | 4 | -0.0123 | 59.2 | 58.7 |
| MSH4 (mutS homolog 4) | 2 | 0.0126 | 52.3 | 52.7 |
| FKBP1A (FKBP prolyl isomerase 1A) | 1 | 0.064 | 99.2 | 104 |
| AREG (amphiregulin) | 1 | 0.0952 | 93.7 | 100 |
| MSH4 (mutS homolog 4) | 3 | 0.244 | 30.3 | 35.8 |

The listing continues.
| gene symbol | siRNA no. | log2 vehicle/camptothecin viability | viability with camptothecin (% of control) | viability without drug (% of control) |
| --- | --- | --- | --- | --- |
| FOLR1 (folate receptor alpha) | 1 | 0.17 | 27.7 | 31.2 |
| FOLR1 (folate receptor alpha) | 2 | -0.0323 | 86.9 | 85 |
| FOLR1 (folate receptor alpha) | 3 | 0.246 | 60.6 | 71.9 |
| FOLR1 (folate receptor alpha) | 4 | 0.125 | 73.4 | 80 |
| ENDOD1 (endonuclease domain containing 1) | 1 | -0.158 | 91.2 | 81.8 |
| ENDOD1 (endonuclease domain containing 1) | 2 | 0.109 | 89 | 95.9 |
| ENDOD1 (endonuclease domain containing 1) | 3 | 0.586 | 80.3 | 121 |
| NBN (nibrin) | 1 | -0.262 | 83.3 | 69.5 |
| NBN (nibrin) | 2 | -0.583 | 56.8 | 37.9 |
| NBN (nibrin) | 3 | -0.228 | 61.5 | 52.5 |
| CENPE (centromere protein E) | 1 | -0.292 | 91.3 | 74.6 |
| CENPE (centromere protein E) | 2 | -0.613 | 87 | 56.9 |
| CENPE (centromere protein E) | 3 | -0.313 | 74 | 59.6 |
| CENPE (centromere protein E) | 4 | -0.423 | 26 | 19.4 |
| UNC13B (unc-13 homolog B) | 1 | -0.0303 | 107 | 105 |
| UNC13B (unc-13 homolog B) | 2 | -0.114 | 105 | 97 |
| UNC13B (unc-13 homolog B) | 3 | -0.186 | 37.7 | 33.1 |
| UNC13B (unc-13 homolog B) | 4 | -0.212 | 112 | 96.3 |
| IL17C (interleukin 17C) | 1 | -0.398 | 46.7 | 35.5 |
| IL17C (interleukin 17C) | 2 | -0.257 | 114 | 95.6 |
| IL17C (interleukin 17C) | 3 | -0.254 | 91.1 | 76.4 |
| IL17C (interleukin 17C) | 4 | 0.046 | 78.5 | 81.1 |
| ARNT (aryl hydrocarbon receptor nuclear translocator) | 1 | 0.133 | 35.7 | 39.1 |
| ARNT (aryl hydrocarbon receptor nuclear translocator) | 2 | -0.421 | 35 | 26.1 |
| ARNT (aryl hydrocarbon receptor nuclear translocator) | 3 | -0.461 | 94.8 | 68.9 |
| ARNT (aryl hydrocarbon receptor nuclear translocator) | 4 | -0.109 | 125 | 116 |
| TAS2R13 (taste 2 receptor member 13) | 1 | -0.16 | 106 | 95.3 |
| TAS2R13 (taste 2 receptor member 13) | 2 | -0.106 | 93 | 86.4 |
| TAS2R13 (taste 2 receptor member 13) | 3 | -0.37 | 127 | 97.9 |
| TAS2R13 (taste 2 receptor member 13) | 4 | -0.686 | 99 | 61.5 |
